{"source": "paper PMC3608632", "key": {"[1]": {"molecular_target": "His/FLAG-tagged topo I deletion construct 4, expressed in H358 cells (human) (UniProt P11387)", "assay": "co-IP; H358 cells treated with Adp14 (20 moi) and transfected with His/FLAG topo I constructs 1-9; lysed 2 days later in high salt buffer (400 mM NaCl), adjusted to 150 mM salt; mouse anti-FLAG M2 IP overnight at 4°C; ARF Western"}, "[2]": {"molecular_target": "His/FLAG-tagged topo I core region, residues 216-636 (construct 7), expressed in H358 cells (human) (UniProt P11387)", "assay": "co-IP; H358 cells treated with Adp14 (20 moi) and transfected with His/FLAG topo I constructs 1-9; lysed 2 days later in high salt buffer (400 mM NaCl), adjusted to 150 mM salt; mouse anti-FLAG M2 IP overnight at 4°C; ARF Western"}, "[3]": {"molecular_target": "His/FLAG-tagged topo I residues 501-765 (construct 8), expressed in H358 cells (human) (UniProt P11387)", "assay": "co-IP; H358 cells treated with Adp14 (20 moi) and transfected with His/FLAG topo I constructs 1-9; lysed 2 days later in high salt buffer (400 mM NaCl), adjusted to 150 mM salt; mouse anti-FLAG M2 IP overnight at 4°C; ARF Western"}, "[4]": {"molecular_target": "His/FLAG-tagged topo I deletion construct 4, expressed in 293T cells (human) (UniProt P11387)", "assay": "co-IP; topo I constructs 1-6 from 293T cells selected on cobalt-agarose, eluted, mixed with 3 µg bacterially expressed recombinant human ARF in 20 mM Tris pH 8, 150 mM NaCl, 10% glycerol, 1% NP40, 2 mM EDTA; FLAG IP; ARF Western; both purified"}}, "note": "No constants are given. Whether binding was seen depends on the method and setting. For some of these results: In cells and extracts the contact can be indirect. Some entries that bind do so weakly or less than the wild type."}
{"substance": "p14 Alternate Reading Frame protein (ARF) in H358 cells (from UniProt Q8N726 1-132)", "values": [{"measurement": "binding", "setting": "[1]", "result": "binds"}, {"measurement": "binding", "setting": "[2]", "result": "binds"}, {"measurement": "binding", "setting": "[3]", "result": "no binding"}]}
{"substance": "recombinant thioredoxin-human ARF fusion protein (from UniProt Q8N726 1-132)", "values": [{"measurement": "binding", "setting": "[4]", "result": "binds"}]}
